Source: patent publication US20240110200A1, “Recombinant AAV Vectors and Gene Therapies for Treating Brain Diseases” (City University of Hong Kong, priority 2022, published 2024)
These are yes or no findings as the source states them, for the method shown. Some results given as binding are weak or reduced against the parent protein; the word gives no strength.

Chains of the proteins cited; added tags and fusions are not shown. Lines headed by an entry give the natural chain unless they say otherwise; changes in a name come on top.
UniProt Q9NS66: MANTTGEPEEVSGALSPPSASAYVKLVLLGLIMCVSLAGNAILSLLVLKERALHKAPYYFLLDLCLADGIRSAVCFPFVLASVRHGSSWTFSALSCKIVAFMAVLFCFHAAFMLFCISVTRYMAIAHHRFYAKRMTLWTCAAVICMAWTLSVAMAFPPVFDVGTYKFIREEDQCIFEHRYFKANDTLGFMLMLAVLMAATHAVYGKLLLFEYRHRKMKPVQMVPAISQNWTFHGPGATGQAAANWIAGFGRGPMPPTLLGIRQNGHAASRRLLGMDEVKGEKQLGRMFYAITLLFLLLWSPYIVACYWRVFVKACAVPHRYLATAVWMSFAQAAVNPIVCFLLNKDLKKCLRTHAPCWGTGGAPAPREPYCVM
UniProt P06307: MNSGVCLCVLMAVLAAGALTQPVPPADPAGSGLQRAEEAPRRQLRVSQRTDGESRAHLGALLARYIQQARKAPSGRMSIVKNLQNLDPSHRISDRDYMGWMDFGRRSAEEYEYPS

Legend:
[1] = target: Flag-GPR173 on transfected HEK293T cells (UniProt Q9NS66); experiment: cell surface binding assay on transfected HEK293T cells (FIG. 4B)
[2] = target: Flag-GPR173 on transfected HEK293T cells (UniProt Q9NS66); experiment: competitive membrane surface labelling assay on Flag-GPR173 HEK293T cells, competitor HA2A8s

For “sulphated CCK8 (CCK8s) (from UniProt P06307 96-103) (peptide)”, the binding [1] was “binds” and the binding [2] was “binds”.
